Literature values, collected in patent US20140056981A1, “METHOD FOR PRODUCING DRUG-LOADED POLYMERIC NANOPARTICLES BY POLYMERIZATION IN PRESENCE OF DRUGS” (CENTRO DE INVESTIGACION EN QUIMICA APLICADA, priority 2012, published 2014).
Values after ≈ are worked out from the molar mass of the structure shown.

Conditions: at 25° C.

- water solubility: 370 µg/mL (≈ 1790 µM)
Compound: CC(C)Cc1ccc(C(C)C(=O)O)cc1 (stereo not shown) [Ibuprofen]
